Measurements published in PMC11781186.

Protein sequences, listed by entry. Tags and fused reporters are not part of them. Lines headed by an entry give the natural chain unless they say otherwise; changes in a name come on top.
UniProt P29317: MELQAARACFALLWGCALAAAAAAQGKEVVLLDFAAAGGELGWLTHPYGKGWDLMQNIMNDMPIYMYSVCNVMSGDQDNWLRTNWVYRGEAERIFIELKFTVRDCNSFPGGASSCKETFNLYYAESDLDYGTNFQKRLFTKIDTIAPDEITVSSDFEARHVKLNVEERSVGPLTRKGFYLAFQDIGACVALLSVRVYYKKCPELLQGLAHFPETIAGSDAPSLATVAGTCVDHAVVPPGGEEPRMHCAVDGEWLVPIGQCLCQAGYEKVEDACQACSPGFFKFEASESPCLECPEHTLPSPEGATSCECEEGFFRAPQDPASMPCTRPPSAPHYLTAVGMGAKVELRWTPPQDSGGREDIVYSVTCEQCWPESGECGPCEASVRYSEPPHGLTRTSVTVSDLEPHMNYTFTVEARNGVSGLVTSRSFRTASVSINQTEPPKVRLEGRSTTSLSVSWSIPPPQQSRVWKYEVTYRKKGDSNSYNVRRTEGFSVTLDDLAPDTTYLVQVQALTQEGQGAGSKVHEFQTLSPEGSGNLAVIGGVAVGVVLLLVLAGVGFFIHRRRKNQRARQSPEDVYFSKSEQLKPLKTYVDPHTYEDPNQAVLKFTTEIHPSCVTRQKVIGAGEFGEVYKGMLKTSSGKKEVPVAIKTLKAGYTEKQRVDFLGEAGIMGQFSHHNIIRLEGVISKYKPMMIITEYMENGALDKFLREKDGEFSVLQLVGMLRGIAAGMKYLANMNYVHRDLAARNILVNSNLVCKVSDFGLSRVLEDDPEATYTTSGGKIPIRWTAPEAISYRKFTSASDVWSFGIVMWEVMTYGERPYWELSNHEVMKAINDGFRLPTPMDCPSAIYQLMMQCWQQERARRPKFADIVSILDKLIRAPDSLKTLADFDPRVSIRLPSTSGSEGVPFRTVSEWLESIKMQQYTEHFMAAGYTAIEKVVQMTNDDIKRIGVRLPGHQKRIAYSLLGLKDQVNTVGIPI

molecular target: Myc-EphA2 (wild type) (UniProt P29317); assay: co-IP; HEK293 cells co-transfected with USP5 and EphA2 expression plasmids (wild type or deletion mutants); whole cell lysates, Protein A/G-Sepharose 4B, overnight at 4°C, 5 washes with RIPA buffer, immunoblotting

| binding | Molecule |
| --- | --- |
| binds | USP5 ZnF-UBP domain (1-283) (from UniProt P45974-2 1-283) (domain or fragment) |
| binds | UBA1 and UBA2 domain deletion (D633-835) USP5 (from UniProt P45974-2 1-632) (domain or fragment) |
| binds | Flag-USP5 (wild type) (from UniProt P45974-2 1-835) (enzyme) |

molecular target: Myc-EphA2 (wild type) (UniProt P29317); assay: as above; remark: another data set of the same source

| binding | Molecule |
| --- | --- |
| no binding | USP5 UBA1 and UBA2 domain (634-835) (domain or fragment, UniProt P45974-2 634-835) ESVIIQLVEMGFPMDACRKAVYYTGNSGAEAAMNWVMSHMDDPDFANPLILPGSSGPGSTSAAADPPPEDCVTTIVSMGFSRDQALKALRATNNSLERAVDWIFSHIDDLDAEAAMDISEGRSAADSISESVPVGPKVRDGPGKYQLFAFISHMGTSTMCGHYVCHIKKEGRWVIYNDQKVCASEKPPKDLGYIYFYQRVAS |
| no binding | USP5 USP domain (284-633) (domain or fragment, UniProt P45974-2 284-633) LKMQKTDKTMTELEIDMNQRIGEWELIQESGVPLKPLFGPGYTGIRNLGNSCYLNSVVQVLFSIPDFQRKYVDKLEKIFQNAPTDPTQDFSTQVAKLGHGLLSGEYSKPVPESGDGERVPEQKEVQDGIAPRMFKALIGKGHPEFSTNRQQDAQEFFLHLINMVERNCRSSENPNEVFRFLVEEKIKCLATEKVKYTQRVDYIMQLPVPMDAALNKEELLEYEEKKRQAEEEKMALPELVRAQVPFSSCLEAYGAPEQVDDFWSTALQAKSVAVKTTRFASFPDYLVIQIKKFTFGLDWVPKKLDVSIEMPEELDISQLRGTGLQPGEEELPDIAPPLVTPDEPKAPMLD |
| no binding | ZnF-UBP domain deletion (D1-283) USP5 (domain or fragment, UniProt P45974-2 284-835) LKMQKTDKTMTELEIDMNQRIGEWELIQESGVPLKPLFGPGYTGIRNLGNSCYLNSVVQVLFSIPDFQRKYVDKLEKIFQNAPTDPTQDFSTQVAKLGHGLLSGEYSKPVPESGDGERVPEQKEVQDGIAPRMFKALIGKGHPEFSTNRQQDAQEFFLHLINMVERNCRSSENPNEVFRFLVEEKIKCLATEKVKYTQRVDYIMQLPVPMDAALNKEELLEYEEKKRQAEEEKMALPELVRAQVPFSSCLEAYGAPEQVDDFWSTALQAKSVAVKTTRFASFPDYLVIQIKKFTFGLDWVPKKLDVSIEMPEELDISQLRGTGLQPGEEELPDIAPPLVTPDEPKAPMLDESVIIQLVEMGFPMDACRKAVYYTGNSGAEAAMNWVMSHMDDPDFANPLILPGSSGPGSTSAAADPPPEDCVTTIVSMGFSRDQALKALRATNNSLERAVDWIFSHIDDLDAEAAMDISEGRSAADSISESVPVGPKVRDGPGKYQLFAFISHMGTSTMCGHYVCHIKKEGRWVIYNDQKVCASEKPPKDLGYIYFYQRVAS |

Results are given in words; binding and its absence hold for the method and conditions named. In cells and extracts the contact can be indirect. For part of these data: Binding calls can cover weak binding; strength is not graded here.
